In patent US20240277878A1:
No constants are given. Whether binding was seen depends on the method and setting. Some binding calls cover weakened binding; strength is not graded here.

Amino acid sequences for entries named in this document (tags omitted). A change or cut given only in a name is not applied to a line headed by its entry. Residues count along the entry.
UniProt Q9NZQ7, residues 19-290: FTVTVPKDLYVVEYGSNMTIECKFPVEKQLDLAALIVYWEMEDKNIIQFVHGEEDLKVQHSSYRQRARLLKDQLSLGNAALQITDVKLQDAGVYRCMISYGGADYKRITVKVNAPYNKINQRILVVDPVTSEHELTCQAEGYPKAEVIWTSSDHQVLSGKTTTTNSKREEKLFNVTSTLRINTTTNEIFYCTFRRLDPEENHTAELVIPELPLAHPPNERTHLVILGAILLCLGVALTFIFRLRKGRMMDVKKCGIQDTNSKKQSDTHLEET

Columns and labels:
[1] = biological target: human PD-L1 on transduced U-698-M B cell lymphoma cells (U698M-PDL1+) (human) (UniProt Q9NZQ7); experiment: radioligand binding on PD-L1 transduced U-698M cells
[2] = biological target: human PD-L1 on transduced U-698-M B cell lymphoma cells (U698M-PDL1+) (human) (UniProt Q9NZQ7); experiment: static PET, PD-L1 positive versus wild-type U-698-M xenografts
[3] = biological target: human PD-L1 on transduced U-698-M B cell lymphoma cells (U698M-PDL1+) (human) (UniProt Q9NZQ7); experiment: dynamic PET, PD-L1 positive versus wild-type U-698-M xenografts
[4] = biological target: human PD-L1 on transduced U-698-M B cell lymphoma cells (U698M-PDL1+) (human) (UniProt Q9NZQ7); experiment: dynamic PET/CT, PD-L1 positive versus wild-type U-698-M xenografts
[5] = biological target: human PD-L1 on transduced U-698-M B cell lymphoma cells (U698M-PDL1+) (human) (UniProt Q9NZQ7); experiment: radioligand binding on PD-L1 transduced U-698M cells, wild-type cells as negative control
[6] = biological target: human PD-L1 on transduced U-698-M B cell lymphoma cells (U698M-PDL1+) (human) (UniProt Q9NZQ7); experiment: static PET, PD-L1 positive versus wild-type U-698-M xenografts; blocked by 9 mg/kg unlabeled Adnectin
[7] = biological target: human PD-L1 on transduced U-698-M B cell lymphoma cells (U698M-PDL1+) (human) (UniProt Q9NZQ7); experiment: SPECT/CT, PD-L1 positive versus wild-type U-698-M xenografts

Row | binding [1] | binding [2] | binding [3] | binding [4] | binding [5] | binding [6] | binding [7] | Binder
1 | binds | binds | binds | binds | binds | binds |  | ^68Ga-DOTA-Adnectin (A02 anti-PD-L1 Adnectin with a C-terminal PC tail, DOTA-conjugated, ^68Ga-labeled) (designed binder, maleimido-mono-amide-DOTA on the C-terminal cysteine, chelating ^68Ga) GVSDVPRDLEVVAATPTSLLISWSYDGPIDRYYRITYGETGGNSPVQEFTVPPDQKTATISGLKPGVDYTITVYAVRLEEAHYNREFPISINYRTPC
2 |  |  |  |  |  |  | binds | ^177Lu-Adnectin (A02 adnectin with PC tail, DOTA-conjugated, ^177Lu-labeled) (designed binder, DOTA on the C-terminal cysteine, chelating ^177Lu) GVSDVPRDLEVVAATPTSLLISWSYDGPIDRYYRITYGETGGNSPVQEFTVPPDQKTATISGLKPGVDYTITVYAVRLEEAHYNREFPISINYRTPC
